PubChem BioAssay AID540276 (National Center for Advancing Translational Sciences (NCATS), 2011)
Screen size: about 300,000 compounds; about 5,400 (1.8%) were called active. The inconclusive results got no clear call from the source; some entries with a clear call stand among them for comparison. Calls come from the whole dose curve; tested in HEK293 cells. Potencies beside an inconclusive call are fits to weak or partial responses and may not hold up.

experiment: qHTS for inhibitors of binding or entry into cells for Marburg Virus; conditions: Marburg virus pseudotyped entry inhibition, cell reporter; series mostly up to 37.8 µM
Potency is the fitted concentration of half-maximal effect.

SMILES | Potency
CC(=O)Nc1ccc(OCc2ccc3c(c2)OCO3)cc1 | inconclusive: 8.91 µM [activator, partial curve, poor fit]
CC(C)(C)OC(=O)N1CCC(c2cc(-c3cccs3)n[nH]2)CC1 | inconclusive: 35.5 µM [inhibitor, single point]
COc1ccc(S(=O)(=O)N2CCOCC2)cc1NC(=O)COc1ncnc2ccccc12 | inconclusive: 11.2 µM [activator, partial curve]
Cc1cc(C)cc(NC(=S)N=Nc2c(O)n(C)c3ccc(S(=O)(=O)N4CCOCC4)cc23)c1 | inconclusive: 3.55 µM [inhibitor, full curve, poor fit]
CCOC(=O)c1sc(N/N=C/c2cccc(C)c2)nc1C | inactive
COc1ccc(C2CN(C)CC2C(=O)c2ccc(F)cc2)cc1Cl (configuration not stated) | inconclusive: 22.4 µM [inhibitor, single point]
C/C(=N\Nc1nc2ccccc2[nH]1)c1cccs1 | inconclusive: 10 µM [inhibitor, partial curve, poor fit]
CCCc1cc(=O)[nH]c(/N=C(/NC(=O)c2ccccc2)Nc2ccc3c(c2)OCCO3)n1 | inactive
COc1ccc(C2CC(=O)c3c([nH]c(C(=O)OC(C)C)c3C)C2)cc1OC (configuration not stated) | inconclusive: 0.708 µM [activator, single point]
COc1ccccc1Nc1nc(NCC(C)C)nc(N)c1[N+](=O)[O-] | inactive
Cc1[nH]c2c(C)cccc2c1CCNC(=O)C1CCCCC1C(=O)OCC(F)(F)F (configuration not stated) | inconclusive: 6.31 µM [inhibitor, partial curve, poor fit]
CC(=O)N1CCc2cc(S(=O)(=O)N3c4ccccc4CC3C)ccc21 (configuration not stated) | inconclusive: 3.66 µM [inhibitor, full curve, poor fit]
CC(C)C(=O)NC(c1cccs1)c1cc([N+](=O)[O-])c2cccnc2c1O (configuration not stated) | inconclusive: 35.5 µM [inhibitor, single point]
CCC(C)(C)n1nnnc1C(c1ccc2ncccc2c1)N1CCN(c2ccc(O)cc2)CC1 (configuration not stated) | inactive
CCCOC(=O)c1ccc(NC(=O)c2ccc(Br)o2)cc1 | inconclusive: 6.31 µM [activator, single point]
CCc1nnc(NC(=O)CN2C(=O)CCC2=O)s1 | inconclusive: 4.47 µM [activator, single point]
O=C(CCNC(=O)c1ccc(Cl)cc1)Nc1ccccc1N1CCCCC1 | inconclusive: 8.91 µM [inhibitor, partial curve, poor fit]
COc1ccc(Cl)cc1S(=O)(=O)n1ccnc1 | inconclusive: 35.5 µM [inhibitor, single point]
COC(=O)c1c(-c2cccs2)csc1NC(=O)COc1ccccc1 | inconclusive: 10 µM [activator, partial curve]
COC(=O)C1=NNC(C(=O)OC)C1c1ccccc1 (configuration not stated) | inactive
Cc1cccc2cc(C#N)c(SCCN3CCCCC3)nc12 | inconclusive: 5.01 µM [inhibitor, single point]
CCOC(=O)Nc1cc(C(=O)OCC)c(C)nc1C | inactive
C[N+](C)(C)c1ccc(/C=N/Nc2nc(Cl)c(C#N)c(Cl)c2Cl)cc1 | inactive

SMILES | Potency
CCOc1cc(/C=C/c2cc(C(F)(F)F)[nH]c(=O)n2)ccc1O | inconclusive: 14.1 µM [inhibitor, partial curve, poor fit]
O=C(Cc1ccccc1)c1ccc(O)cc1O | inconclusive: 2.24 µM [inhibitor, partial curve, poor fit]
COc1ccc(C(=O)C2CCCN(C3CSCCSC3)C2)cc1OC (configuration not stated) | inconclusive: 5.62 µM [inhibitor, single point]
Oc1c(Cl)cc(Cl)cc1/C=N/Nc1ncc(Br)cn1 | inconclusive: 0.651 µM [inhibitor, full curve, poor fit]
O=C(C1CCCO1)N1CCN(S(=O)(=O)c2ccccc2)CC1 (configuration not stated) | inconclusive: 29.1 µM [activator, single point]
O=C(Cc1cc(=O)[nH][nH]1)N/N=C/C(Cl)=C/c1ccccc1 | inconclusive: 2.82 µM [activator, partial curve, poor fit]
CCOC(=O)c1snc(-c2ccc(F)cc2)c1N | inconclusive: 7.3 µM [activator, partial curve, poor fit]
Clc1ccc(OCc2nc(-c3ccccn3)n[nH]2)cc1 | inconclusive: 29.1 µM [inhibitor, single point]
COc1cccc(OC)c1OC[C@H](C)CNC[C@@H]1CCCO1 | inactive
O=C(O)c1cc(S(=O)(=O)Nc2cccc(S(=O)(=O)N3CCCC3)c2)ccc1Cl | inconclusive: 35.5 µM [activator, single point]
COc1ccccc1/C(O)=C(\C#N)c1nc2ccccc2[nH]1 | inactive
O=C(Nc1cc(S(=O)(=O)N2CCOCC2)ccc1N1CCCC1)c1cc(F)c(F)cc1Cl | inconclusive: 35.5 µM [inhibitor, single point]
COc1cccc(/C=N/NC(=O)c2ccoc2C)c1 | inconclusive: 3.55 µM [activator, single point]
Fc1ccc(CNC(=S)NC2CCCC2)cc1 | inconclusive: 10 µM [inhibitor, partial curve, poor fit]
CCOC(=O)c1c(C)[nH]c(C(=O)N2CCN(c3ccc(OC)cc3)CC2)c1C | inconclusive: 22.4 µM [inhibitor, single point]
CCOC(=O)c1ccc(NC(=O)CS(=O)(=O)c2cn(CC)c3ccccc23)cc1 | active: 8.2 µM
CC(C)OC(=O)CSc1ncnc2c1cnn2Cc1ccccc1 | inconclusive: 0.562 µM [inhibitor, partial curve, poor fit]
CCc1ccc(-c2cn3nc(C)c(C)nc3n2)cc1 | active: 2.06 µM
COC(=O)C1=C(C)N(Cc2ccccc2)C(=O)NC1c1ccco1 (configuration not stated) | inactive
O=C(CNc1ccccc1)Nc1cccc2ccccc12 | inconclusive: 1.26 µM [inhibitor, single point]
COc1cccc(C(=O)Nc2ccc(NC(=O)C3C4C=CC(C4)C3C(=O)O)cc2)c1 (configuration not stated) | inconclusive: 35.5 µM [inhibitor, single point]
O=c1c2ccccc2nc(-c2ccc(-c3ccccc3)cc2)n1-c1ccncc1 | inconclusive: 29.1 µM [inhibitor, single point]
COc1cccc(CNCc2c(C(=O)O)c(C)n(Cc3ccc(F)cc3Cl)c2C)c1OC | inactive

SMILES | Potency
O=C(Nc1ccc(F)c(F)c1)c1ccc(F)c(S(=O)(=O)N2CCC3(CC2)OCCO3)c1 | inconclusive: 8.91 µM [inhibitor, partial curve, poor fit]
CC(C)(C)NC(=O)C(c1ccncc1)N(C(=O)Cn1nnc(-c2ccc(F)cc2)n1)c1ccccc1 (configuration not stated) | inactive
COC(=O)CN1C(c2ccc(Cl)cc2)=Nc2ccc(Cl)cc2C1c1ccccc1 (configuration not stated) | inconclusive: 35.5 µM [inhibitor, single point]
Cc1ccc(Cl)cc1N1CCN(C(=O)c2cn(C)c3ccc(S(=O)(=O)N4CCCCC4)cc3c2=O)CC1 | inactive
O=C(CN1CCN(S(=O)(=O)c2ccccc2)CC1)Nc1ccc(Cl)c(Cl)c1 | inconclusive: 29.1 µM [inhibitor, single point]
O=C1CCCC=C1[C@@H](O)CCOCc1ccccc1 | inactive
CC(C)CNc1cc(NC2CCCCC2)c2c3c(onc13)-c1ccccc1C2=O | inconclusive: 6.31 µM [activator, single point]
CCCc1nc(SCC(=O)N2CCCc3ccccc32)c2c(=O)n(C)c(=O)n(C)c2n1 | inactive
COc1ccccc1C1C(C(C)=O)=C(C)N=c2s/c(=C\c3cc(OC)c(OC)c(OC)c3)c(=O)n21 (configuration not stated) | inconclusive: 35.5 µM [inhibitor, single point]
O=C(c1cccc(S(=O)(=O)N2CCCC2)c1)N1CCCc2ccccc21 | inconclusive: 1.58 µM [inhibitor, full curve, poor fit]
Cc1cccc(N=c2oc3cc(O)ccc3cc2C(N)=O)c1 | inconclusive: 11.2 µM [activator, partial curve, poor fit]
COc1ccccc1NC(=O)C(NC(=O)c1ccc(C)cc1)c1ccccc1 (configuration not stated) | inconclusive: 12.6 µM [inhibitor, partial curve, poor fit]
CC(=O)N1c2ccc(S(=O)(=O)N3CCCCC3)cc2CC1C(=O)Nc1ccc(C)cc1 (configuration not stated) | inconclusive: 11.2 µM [inhibitor, partial curve, poor fit]
CC(C)(C)c1cc(NCCCn2ccnc2)n2ncc(-c3ccc(Cl)cc3)c2n1 | inconclusive: 18.3 µM [inhibitor, single point]
Cc1c(N)cccc1-c1nc2ccccc2[nH]1 | inactive
O=S(=O)(Nc1c(O)ccc2ccccc12)c1ccc(F)cc1 | inconclusive: 35.5 µM [inhibitor, single point]
O=C(CCCc1nc(-c2ccccc2)no1)N1CCOCC1 | inactive
CCN(CC)CCNC(=O)c1ccc(Cl)c(S(=O)(=O)Nc2ccc(Cl)cc2)c1 | inconclusive: 11.2 µM [inhibitor, partial curve, poor fit]
O=C(Nc1nc2ccccc2n1Cc1ccccc1)c1ccc(COc2ccccc2[N+](=O)[O-])o1 | inconclusive: 29.1 µM [inhibitor, single point]
COc1ccc(CNC(=O)CCCn2nc(C)c([N+](=O)[O-])c2C)cc1 | inconclusive: 35.5 µM [activator, single point]
Cc1cccc(N(C(=O)c2ccc(Cl)cc2)C2CS(=O)(=O)CC2OC(=O)c2ccc(Cl)cc2)c1 (configuration not stated) | inconclusive: 13 µM [inhibitor, partial curve]

Compounds from the list above with fluorine:
SMILES | Potency
COc1ccc(C2CN(C)CC2C(=O)c2ccc(F)cc2)cc1Cl (configuration not stated) | inconclusive: 22.4 µM [inhibitor, single point]
Cc1[nH]c2c(C)cccc2c1CCNC(=O)C1CCCCC1C(=O)OCC(F)(F)F (configuration not stated) | inconclusive: 6.31 µM [inhibitor, partial curve, poor fit]
CCOc1cc(/C=C/c2cc(C(F)(F)F)[nH]c(=O)n2)ccc1O | inconclusive: 14.1 µM [inhibitor, partial curve, poor fit]
CCOC(=O)c1snc(-c2ccc(F)cc2)c1N | inconclusive: 7.3 µM [activator, partial curve, poor fit]
O=C(Nc1cc(S(=O)(=O)N2CCOCC2)ccc1N1CCCC1)c1cc(F)c(F)cc1Cl | inconclusive: 35.5 µM [inhibitor, single point]
Fc1ccc(CNC(=S)NC2CCCC2)cc1 | inconclusive: 10 µM [inhibitor, partial curve, poor fit]
COc1cccc(CNCc2c(C(=O)O)c(C)n(Cc3ccc(F)cc3Cl)c2C)c1OC | inactive
O=C(Nc1ccc(F)c(F)c1)c1ccc(F)c(S(=O)(=O)N2CCC3(CC2)OCCO3)c1 | inconclusive: 8.91 µM [inhibitor, partial curve, poor fit]
CC(C)(C)NC(=O)C(c1ccncc1)N(C(=O)Cn1nnc(-c2ccc(F)cc2)n1)c1ccccc1 (configuration not stated) | inactive
O=S(=O)(Nc1c(O)ccc2ccccc12)c1ccc(F)cc1 | inconclusive: 35.5 µM [inhibitor, single point]

Some of the entries so far, with tabs:
SMILES	Potency
CCC(C)(C)n1nnnc1C(c1ccc2ncccc2c1)N1CCN(c2ccc(O)cc2)CC1 (configuration not stated)	inactive
CCCOC(=O)c1ccc(NC(=O)c2ccc(Br)o2)cc1	inconclusive: 6.31 µM [activator, single point]
